{"source": "patent US20240310365A1", "about": "“DEVICE FOR EVALUATING INNER EAR DRUG DELIVERY” (North Carolina State University, priority 2023, published 2024)", "origin": "cited, not measured here", "details": "humans; after intratympanic DSP 0.4-1.8 ml of 4 mg/ml; 20 μl perilymph; cited from earlier work"}
{"smiles": "C[C@@H]1C[C@H]2[C@@H]3CCC4=CC(=O)C=C[C@]4(C)[C@@]3(F)[C@@H](O)C[C@]2(C)[C@@]1(O)C(=O)COP(=O)(O)O", "note": "[DSP, dexamethasone sodium phosphate]", "values": [{"measurement": "DSP concentration in perilymph", "value": "about 7.5 μg/mL"}]}
